Laboratory results taken from PubChem BioAssay AID2551 (National Center for Advancing Translational Sciences (NCATS), 2010).
The campaign covered roughly 310,000 compounds. About 17,000 (5.5%) were called active. The shares of active, inactive and inconclusive entries below differ from those in the screen. Calls come from the whole dose curve; as a rule, active = well fitted inhibition curve with a large enough effect; inconclusive = small, poorly fitted or top-dose-only effect, or effect the other way; inactive = no such curve, though single readings can be large or run the other way. Potencies of inconclusive entries are doubtful fits and often do not repeat.

Sequences of proteins named here, by UniProt entry; tags and fusion partners are left off. A change or cut given only in a name is not applied to a line headed by its entry.
UniProt P51450: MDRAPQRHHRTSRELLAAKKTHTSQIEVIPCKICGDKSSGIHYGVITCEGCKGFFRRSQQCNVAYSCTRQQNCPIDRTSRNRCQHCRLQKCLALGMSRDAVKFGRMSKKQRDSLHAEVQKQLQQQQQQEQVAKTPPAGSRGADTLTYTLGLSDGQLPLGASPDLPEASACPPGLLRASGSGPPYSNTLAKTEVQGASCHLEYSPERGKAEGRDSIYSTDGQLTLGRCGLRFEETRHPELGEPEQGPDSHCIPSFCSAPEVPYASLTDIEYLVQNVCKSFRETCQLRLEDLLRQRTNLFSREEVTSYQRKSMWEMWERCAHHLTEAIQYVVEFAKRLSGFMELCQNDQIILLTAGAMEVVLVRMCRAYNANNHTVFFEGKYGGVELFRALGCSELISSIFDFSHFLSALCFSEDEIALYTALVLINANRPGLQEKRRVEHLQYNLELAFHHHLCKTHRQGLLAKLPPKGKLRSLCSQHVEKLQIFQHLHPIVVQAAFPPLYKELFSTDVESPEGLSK

What follows are molecules tested against Nuclear receptor ROR-gamma (Mus musculus) (UniProt P51450) (assay: qHTS for inhibitors of ROR gamma transcriptional activity). Conditions: Drosophila S2 Gal4-RORgamma UAS-luciferase reporter, 20 h; series mostly up to 53.6 µM.
Outline: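 In this cell-based reporter format, copper sulfate (700 uM final) drives Gal4–ROR gamma fusion expression from a metallothionein promoter in Drosophila Schneider cells; compounds preincubated 1 hr, reporter read after 20 hr at ambient temperature.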
Note: nearly all actives have a fitted effect of over 60% in size.
Potency is the fitted concentration of half-maximal effect.

Row | SMILES | Potency
1 | Cc1ccc(S(=O)(=O)Cn2nnnc2CN(Cc2ccco2)Cc2cccs2)cc1 | inconclusive: 14.1 µM [activator, single point]
2 | C=CCn1c(COc2ccc(F)cc2)nnc1SCC(=O)c1c[nH]c2c(CC)cccc12 | inactive
3 | C/C(=N\Nc1cccc2cccnc12)c1ccccc1O | inconclusive: 10 µM [inhibitor, partial curve]
4 | COc1ccc(NC(=O)c2ccc(-c3ccc(-c4noc(C)n4)cc3C)cc2)cc1N1CCN(C)CC1 | active: 20 µM
5 | C[C@H](NC(=O)[C@H]1N2C(=O)c3ccccc3C2SC1(C)C)C(=O)NCc1ccncc1 (some centres undefined) | inactive
6 | COC(=O)[C@@]1(Cc2ccc(F)cc2)[C@H]2c3cc(C(=O)N(C)C)n(Cc4ccc(C)o4)c3C[C@H]2CN1C(=O)c1ccccc1 | inconclusive: 35.5 µM [inhibitor, single point]
7 | Cc1c(NC(=O)c2cc(-c3ccccc3O)on2)c(=O)n(-c2ccccc2)n1C | inconclusive: 1.41 µM [inhibitor, full curve, poor fit]
8 | CCCn1c(-c2ccc[nH]c2=O)nc2ccccc21 | inconclusive: 7.08 µM [activator, full curve, poor fit]
9 | C#CCOc1nc2c(c(=O)n(C)c(=O)n2C)n1Cc1ccccc1 | inconclusive: 15.8 µM [activator, single point]
10 | COc1cccc(OCc2ccc(Cl)cc2)c1C#N | inconclusive: 14.1 µM [inhibitor, single point]
11 | CCOC(=O)C(C)N1C(=O)S/C(=C/c2cc(C)n(-c3ccccn3)c2C)C1=O (centres undefined) | inconclusive: 0.447 µM [activator, full curve, poor fit]
12 | COc1cc(/C=N/NC(=O)C2CC(=O)N(c3ccc(C)cc3)C2)cc(OC)c1OC (centres undefined) | inactive
13 | Cc1ccc(/C=C/C(=O)O)cc1S(=O)(=O)NCCCO | inconclusive: 1 µM [activator, partial curve, poor fit]
14 | COc1ccc(Nc2nnc(C)c(=O)[nH]2)c(OC)c1 | inactive
15 | CN1CCN(c2ccccc2NC(=O)c2ccc(N3CCCC3)c([N+](=O)[O-])c2)CC1 | inactive
16 | CCOC(=O)N1CCC(NC(=O)c2cc(S(=O)(=O)N3CCCCC3)ccc2F)CC1 | inconclusive: 10 µM [activator, partial curve, poor fit]
17 | CC(/C=N/Nc1nc(N2CCCCC2)nc(N2CCCCC2)n1)=C\c1ccccc1 | inconclusive: 1.58 µM [inhibitor, single point]
18 | COc1ccc(Br)cc1/C(C)=N/NC1=NCCN1 | inconclusive: 2.82 µM [activator, single point]
19 | O=C(Cn1cc2c(n1)CCCC2)NCCCN1CCN(C2CCCCC2)CC1 | inconclusive: 1.41 µM [inhibitor, partial curve, poor fit]
20 | N#Cc1ccc(-c2ccc(OCC(=O)Nc3cccnc3)cc2)cc1 | inactive
21 | Cc1ccc(CNCCCSc2nc(C)cc(C)n2)cc1 | inconclusive: 12.6 µM [inhibitor, single point]
22 | CCOC(CNC(=O)c1ccc(N2CCc3ccccc32)c([N+](=O)[O-])c1)OCC | inconclusive: 35.5 µM [activator, single point]
23 | CC(c1ccccc1)C1CC(=O)N(c2ccccc2)C1=O (centres undefined) | inactive
24 | Cc1ccc(C(=O)NCc2ccco2)c(C)c1 | inconclusive: 20 µM [inhibitor, single point]
25 | COc1ccc(S(=O)(=O)N2CCC(C(=O)NC3CC3)CC2)cc1OC | inactive

Row | SMILES | Potency
26 | Cc1ccc(Nc2nc(C(=O)NCC3CCCO3)cs2)cc1 (centres undefined) | inconclusive: 22.4 µM [activator, single point]
27 | O=C(N/N=C/c1cc([N+](=O)[O-])ccc1O)c1cccc(NC(=O)c2cccc(Cl)c2)c1 | active: 4.47 µM
28 | N#Cc1c(Nc2ccc(Cl)cc2)s[nH]c1=O | inconclusive: 17.8 µM [inhibitor, single point]
29 | CCOc1cc(/C=C2\NC(=O)NC2=O)ccc1OC(C)C(=O)O (centres undefined) | inactive
30 | N#C/C(=C\c1coc2ccccc2c1=O)C(N)=S | active: 12.6 µM
31 | Cc1cc(NC(=O)CSc2nnc(-c3cccnc3)n2Cc2ccccc2)no1 | inactive
32 | Cc1cc(C)cc(OCC(=O)Nc2ccc(N3CCN(C(=O)c4ccco4)CC3)cc2)c1 | inconclusive: 17.8 µM [activator, single point]
33 | CS(=O)(=O)c1ccc2nc(NC(=O)CC3CCCC3)sc2c1 | inconclusive: 0.891 µM [activator, partial curve]
34 | CCOc1ccc(NS(=O)(=O)c2ccc(NC(=S)NC(=O)CC(C)C)cc2)cc1 | inconclusive: 20 µM [inhibitor, single point]
35 | CC(C)(C)c1ccc(C(=O)c2c[nH]c(C(=O)NCCCN3CCOCC3)c2)cc1 | inactive
36 | COc1ccc2cc(/C=C/C(=O)N3CCN(CC(=O)N4CCCCCC4)CC3)ccc2c1 | inconclusive: 15.8 µM [activator, partial curve, poor fit]
37 | COc1cc(NC(=O)C2=C(N3CCOCC3)/C(=C/c3ccc(Cl)cc3)CC2)cc(OC)c1OC | inconclusive: 2.82 µM [activator, full curve]
38 | Cc1cc(C(=O)COC(=O)c2ccc(O)cc2)c(C)n1CC1CCCO1 (centres undefined) | active: 7.08 µM
39 | CN(C)c1ccc(C=Nc2ccc(N(C)C)cc2)cc1 | inconclusive: 35.5 µM [inhibitor, single point]
40 | CCc1cc2c(=O)n(Cc3ccco3)c(SCC(=O)NCC3CCCO3)nc2s1 (centres undefined) | inconclusive: 14.1 µM [activator, partial curve]
41 | C/C(CC1CC2=C(CC1(C)C)C(C)(C)CCC2)=N\NC(N)=S (centres undefined) | active: 2 µM
42 | O=C(CS(=O)CC(=O)Nc1ccc(Cl)cc1)NCC1OCCc2ccccc21 (centres undefined) | inactive
43 | Fc1ccc(NC(=S)Nc2nccs2)cc1 | active: 0.316 µM
44 | CC(C)Cn1c(/C=C/c2ccco2)nc2ccccc21 | active: 11.2 µM
45 | COc1cc(CCC(=O)Nc2ccc(C)c(S(=O)(=O)N(C)C)c2)cc(OC)c1OC | inactive
46 | COc1ccc([N+](=O)[O-])cc1C(=O)NCCOc1ccc(Cl)cc1 | inconclusive: 12.6 µM [activator, single point]
47 | CCCCCCCCNC1=CC(=O)CC(C)(C)C1 | inconclusive: 15.8 µM [activator, single point]
48 | CCOC(=O)N1CCN(C(=O)c2ccccc2NC(=O)COc2ccccc2)CC1 | inactive
49 | O=c1c2ccccc2nc(SCc2nnc(-c3ccccc3)o2)n1-c1ccc(F)cc1F | inactive
50 | COCCNC(=S)N(CCc1c(C)[nH]c2ccc(F)cc12)Cc1ccc(C)cc1 | inconclusive: 35.5 µM [inhibitor, single point]

Row | SMILES | Potency
51 | CCc1sc(C(=O)Nc2ncccc2O)cc1C | inactive
52 | O=C(Nc1nnc(C2=COCCO2)o1)c1cccc(Br)c1 | active: 0.355 µM
53 | O=C(Oc1c(Cl)cc(Cl)c2cccnc12)c1ccco1 | active: 0.282 µM
54 | CCOc1ccc(NC(=O)C2CCCN(c3cnccn3)C2)cc1 (centres undefined) | inactive
55 | NS(=O)(=O)c1ccc(NC(=O)N[C@@H](Cc2ccccc2)C(=O)O)cc1 | inconclusive: 0.0891 µM [inhibitor, single point]
56 | CCOc1cccc(C(=O)N(Cc2cccc(F)c2)C2CCS(=O)(=O)C2)c1 (centres undefined) | inactive
57 | Cc1cc2c3c(c1)C1(C(=O)N3C(C)(C)CC2C)C(C#N)=C(N)OC2=C1C(=O)CC(C)(C)C2 (centres undefined) | inactive
58 | CCc1nnc(NC(=O)c2ccc3ccccc3n2)s1 | inactive
59 | CN(C)c1ccccc1C(=O)N1CCC(n2nccc2NC(=O)C2CC2)CC1 | inactive
60 | CCOc1ccc(N(C)C(=O)CCc2nnc3ccc(N4CCC5(CC4)OCCO5)nn23)cc1 | inactive
61 | O=C(NCCc1nc2ccccc2[nH]1)/C(=C/c1ccc2c(c1)OCO2)NC(=O)c1ccc(Cl)cc1Cl | inconclusive: 11.2 µM [activator, partial curve]
62 | O=C(Oc1ccccc1C(=S)N1CCOCC1)c1ccc([N+](=O)[O-])cc1[N+](=O)[O-] | inconclusive: 6.31 µM [activator, single point]
63 | CC(=O)N1CCC(=NNc2nc3ccccc3s2)CC1 | inconclusive: 35.5 µM [inhibitor, single point]
64 | COc1ccccc1N1CCN(C(=O)C2CCN(C(=O)c3ccc(C(C)(C)C)cc3)CC2)CC1 | inconclusive: 12.6 µM [activator, single point]
65 | O=C(CSc1nnc(-c2ccccc2)c2ccccc12)NCC1CCCO1 (centres undefined) | inconclusive: 2.82 µM [activator, single point]
66 | COc1ccccc1NC(=S)NNC(=O)c1nn(C)cc1Cl | active: 10 µM
67 | COc1ccc(C(Nc2ccccn2)c2c(NC(=O)c3ccco3)sc(C)c2C)cc1OC (centres undefined) | inconclusive: 12.6 µM [activator, partial curve]
68 | COc1ccccc1OCC(=O)N(Cc1nc(-c2ccccc2)no1)C1CCCCC1 | inconclusive: 10 µM [activator, partial curve]
69 | Cc1cc(-c2nnc(SCC(=O)Nc3nc(-c4ccc(Cl)cc4)cs3)o2)no1 | active: 14.1 µM
70 | Cc1cc(C)cc(NS(=O)(=O)c2ccc(NC(=S)NC(=O)c3ccc(Br)o3)cc2)c1 | active: 3.55 µM
71 | O=C(N/N=C/c1cccnc1)c1cccc(S(=O)(=O)Nc2cccc(Cl)c2)c1 | inactive
72 | Cc1c(-c2ccccc2)[nH]n2c(=O)c3c(nc12)CCCC3 | inactive
73 | COCCNC(=O)/C(C#N)=C\c1ccc(CNC(=O)C(=O)Nc2ccc(C)c(C)c2)o1 | inactive
74 | CCNC(=S)N(Cc1cccs1)Cc1cc2cc(OCC)ccc2[nH]c1=O | inconclusive: 14.1 µM [activator, single point]

An excerpt from above in order of SMILES length, low to high:
Row | SMILES | Potency
66 | COc1ccccc1NC(=S)NNC(=O)c1nn(C)cc1Cl | active: 10 µM
74 | CCNC(=S)N(Cc1cccs1)Cc1cc2cc(OCC)ccc2[nH]c1=O | inconclusive: 14.1 µM [activator, single point]
70 | Cc1cc(C)cc(NS(=O)(=O)c2ccc(NC(=S)NC(=O)c3ccc(Br)o3)cc2)c1 | active: 3.55 µM
